{"source": "patent US20260284208A1", "about": "“SYSTEM” (Oxford University Innovation Limited, priority 2023, published 2026)", "system": "library of 8,380 IKZF3 degrons (ZF-eGFP/mCherry reporter) in Jurkat cells", "assay": "Pooled library screen (FACS, NGS, limma voom LogFC of positive vs negative read counts)", "assay_type": "cell-based, human", "procedure": "A library of 8,380 IKZF3 degrons was cloned into pLVX-Sprout to create the eGFP/mCherry protein degradation reporter plasmid pool. A lentivirus pool was then generated using the Lenti-X lentiviral vector production method.\nJurkat cells were transduced at a multiplicity of infection of <0.3 with the lentivirus vector library in order to maximise the number of cells with a single integration. Transductions were carried out in 6 well TC-treated cell culture dishes (Falcon) with 3×10^6 cells per well. Cells were incubated for 2 days at 37° C. and 5% CO2 before the supernatant was removed and replaced with fresh media. 6 days post-transduction, mCherry+ cells were isolated via FACS using the FACS Aria Fusion (BD) in a buffer containing PBS (Gibco), 2 mM EDTA (Gibco), 25 mM HEPES (Sigma) and 1% BSA (Sigma). 8 days later, cells were treated with DMSO or a thalidomide analog for 18 hours at 37° C. and 5% CO2. mCherry+GFPlow and NOT(mCherry+GFPlow) cells were sorted by FACS using the FACS Aria Fusion (BD). DMSO treated cells were used to set the mCherry+GFPlow gate and dead cells were excluded from sorting by staining cells with 1 μg/mL DAPI (ThermoFisher). gDNA was isolated using the Maxwell RSC 48 (Promega). gDNA from cells that were unsorted and untreated were also isolated to determine the library representation on the day of compound treatment. Throughout the screen >600× coverage of the library was maintained. 3 biological replicates were carried out with a new transduction taking place each time.\nA two-step PCR was used where the first PCR (PCR1) amplified the integrated degron sequence from gDNA and the second PCR (PCR2) added Illumina adaptors and barcodes to permit multiplexing. See Supp F for PCR1 and PCR2 primers. Q5 Hot Start High-Fidelity 2× Master Mix (New England Biolabs) was used for both PCRs. Sufficient gDNA was amplified in PCR1 in order to maintain >600× coverage and amplicons were purified using solid phase reversible immobilization (SPRI) beads (Beckman Coulter). Purified PCR1 products were analysed on the Tapestation 4200 (Agilent) to confirm purity prior to proceeding to PCR2. Sufficient PCR1 product was amplified in PCR2 in order to maintain >600× coverage and amplicons were run on a 2% agarose TAE gel. Target bands were excised and purified using the NucleoSpin Gel and PCR Clean-up Kit (Machery Nagel). Amplicons were analysed on the Tapestation 4200 and quantified using Qubit dsDNA HS kit (ThermoFisher). PCR products were pooled and sequenced as paired-reads on the NovaSeq (Illumina) using a SP2 200 cycles kit (Illumina).\nCount distributions, percentage of read mapping, library coverage and replicate correlation per sample were assessed for QC purposes.\nTo carry out the library screen, we used the same plasmid construct as in our earlier flow cytometry assays, but pooling all 8,380 mutants together into one Jurkat population, ensuring a copy number of one plasmid per cell (FIG. 4B). […] These GFP-negative cells were then separated from the remaining GFP-positive population using fluorescence activated cell sorting (FACS). These two populations were then sequenced and the relative abundance of every mutant in both populations compared to provide a log FC value for each mutant sequence. This value indicated how frequently a sequence is observed in the GFP-negative population relative to the GFP-positive population, and therefore how effective a degron it is for that particular IMID compound.", "note": "Further values from the same series stand in other lists."}
{"smiles": "O=C1CCC(N2C(=O)c3ccc(N4CCOCC4)cc3C2=O)C(=O)N1", "note": "(stereo not shown) [B03]", "values": [{"measurement": "B03_logFC", "setting": "Degron-ID 3541, SEQ ID NO 4300, 46F_47S_49P_50I_52G_53A_54C_55F_67L_", "result": 2.221}, {"measurement": "B03_logFC", "setting": "Degron-ID 3552, SEQ ID NO 3855, 46F_47S_49P_50I_52G_53A_54P_55F_67L", "result": 2.916}, {"measurement": "B03_logFC", "setting": "Degron-ID 3553, SEQ ID NO 4281, 46F_47S_49P_50I_52G_53A_54Q_55F_67L_", "result": 2.246}, {"measurement": "B03_logFC", "setting": "Degron-ID 3555, SEQ ID NO 3939, 46F_47S_49P_50I_52G_53A_54S_55F_67L", "result": 2.78}, {"measurement": "B03_logFC", "setting": "Degron-ID 3556, SEQ ID NO 4342, 46F_47S_49P_50I_52G_53A_54T_55F_67L_", "result": 2.138}, {"measurement": "B03_logFC", "setting": "Degron-ID 3593, SEQ ID NO 4375, 46F_47S_49P_50V_52G_53A_54Q_55F_67L_", "result": 2.08}, {"measurement": "B03_logFC", "setting": "Degron-ID 3595, SEQ ID NO 4287, 46F_47S_49P_50V_52G_53A_54S_55F_67L_", "result": 2.24}, {"measurement": "B03_logFC", "setting": "Degron-ID 3600, SEQ ID NO 4039, 46F_47T_49D_50I_52G_53A_54A_55F_67L", "result": 2.625}, {"measurement": "B03_logFC", "setting": "Degron-ID 3612, SEQ ID NO 3896, 46F_47T_49D_50I_52G_53A_54P_55F_67L", "result": 2.856}, {"measurement": "B03_logFC", "setting": "Degron-ID 3615, SEQ ID NO 4252, 46F_47T_49D_50I_52G_53A_54S_55F_67L_", "result": 2.295}, {"measurement": "B03_logFC", "setting": "Degron-ID 3660, SEQ ID NO 3702, 46F_47T_49E_50I_52G_53A_54A_55F_67L_", "result": 3.208}, {"measurement": "B03_logFC", "setting": "Degron-ID 3665, SEQ ID NO 4314, 46F_47T_49E_50I_52G_53A_54G_55F_67L_", "result": 2.186}, {"measurement": "B03_logFC", "setting": "Degron-ID 3672, SEQ ID NO 3701, 46F_47T_49E_50I_52G_53A_54P_55F_67L_", "result": 3.214}, {"measurement": "B03_logFC", "setting": "Degron-ID 3674, SEQ ID NO 3750, 46F_47T_49E_50I_52G_53A_54R_55F_67L_", "result": 3.123}, {"measurement": "B03_logFC", "setting": "Degron-ID 3675, SEQ ID NO 3790, 46F_47T_49E_50I_52G_53A_54S_55F_67L_", "result": 3.028}, {"measurement": "B03_logFC", "setting": "Degron-ID 3676, SEQ ID NO 4262, 46F_47T_49E_50I_52G_53A_54T_55F_67L_", "result": 2.275}, {"measurement": "B03_logFC", "setting": "Degron-ID 3700, SEQ ID NO 3692, 46F_47T_49E_50V_52G_53A_54A_55F_67L_", "result": 3.238}, {"measurement": "B03_logFC", "setting": "Degron-ID 3712, SEQ ID NO 3689, 46F_47T_49E_50V_52G_53A_54P_55F_67L_", "result": 3.248}, {"measurement": "B03_logFC", "setting": "Degron-ID 3713, SEQ ID NO 4313, 46F_47T_49E_50V_52G_53A_54Q_55F_67L_", "result": 2.187}, {"measurement": "B03_logFC", "setting": "Degron-ID 3714, SEQ ID NO 3783, 46F_47T_49E_50V_52G_53A_54R_55F_67L_", "result": 3.042}, {"measurement": "B03_logFC", "setting": "Degron-ID 3715, SEQ ID NO 3825, 46F_47T_49E_50V_52G_53A_54S_55F_67L_", "result": 2.96}, {"measurement": "B03_logFC", "setting": "Degron-ID 3720, SEQ ID NO 4249, 46F_47T_49N_50I_52G_53A_54A_55F_67L_", "result": 2.296}, {"measurement": "B03_logFC", "setting": "Degron-ID 3732, SEQ ID NO 3791, 46F_47T_49N_50I_52G_53A_54P_55F_67L_", "result": 3.027}, {"measurement": "B03_logFC", "setting": "Degron-ID 3780, SEQ ID NO 3821, 46F_47T_49P_50I_52G_53A_54A_55F_67L_", "result": 2.968}, {"measurement": "B03_logFC", "setting": "Degron-ID 3781, SEQ ID NO 4044, 46F_47T_49P_50I_52G_53A_54C_55F_67L", "result": 2.617}, {"measurement": "B03_logFC", "setting": "Degron-ID 3785, SEQ ID NO 4309, 46F_47T_49P_50I_52G_53A_54G_55F_67L_", "result": 2.191}, {"measurement": "B03_logFC", "setting": "Degron-ID 3788, SEQ ID NO 4401, 46F_47T_49P_50I_52G_53A_54K_55F_67L_", "result": 2.037}, {"measurement": "B03_logFC", "setting": "Degron-ID 3794, SEQ ID NO 3832, 46F_47T_49P_50I_52G_53A_54R_55F_67L_", "result": 2.953}, {"measurement": "B03_logFC", "setting": "Degron-ID 3795, SEQ ID NO 3794, 46F_47T_49P_50I_52G_53A_54S_55F_67L_", "result": 3.024}, {"measurement": "B03_logFC", "setting": "Degron-ID 3799, SEQ ID NO 4275, 46F_47T_49P_50I_52G_53A_54Y_55F_67L_", "result": 2.254}, {"measurement": "B03_logFC", "setting": "Degron-ID 3820, SEQ ID NO 3759, 46F_47T_49P_50V_52G_53A_54A_55F_67L_", "result": 3.111}, {"measurement": "B03_logFC", "setting": "Degron-ID 3825, SEQ ID NO 4370, 46F_47T_49P_50V_52G_53A_54G_55F_67L_", "result": 2.087}, {"measurement": "B03_logFC", "setting": "Degron-ID 3832, SEQ ID NO 3725, 46F_47T_49P_50V_52G_53A_54P_55F_67L_", "result": 3.158}, {"measurement": "B03_logFC", "setting": "Degron-ID 3845, SEQ ID NO 4301, 46F_47V_49D_50I_52G_53A_54G_55F_67L_", "result": 2.218}, {"measurement": "B03_logFC", "setting": "Degron-ID 3852, SEQ ID NO 3672, 46F_47V_49D_50I_52G_53A_54P_55F_67L_", "result": 3.292}, {"measurement": "B03_logFC", "setting": "Degron-ID 3855, SEQ ID NO 4387, 46F_47V_49D_50I_52G_53A_54S_55F_67L_", "result": 2.058}, {"measurement": "B03_logFC", "setting": "Degron-ID 3892, SEQ ID NO 3846, 46F_47V_49D_50V_52G_53A_54P_55F_67L", "result": 2.929}, {"measurement": "B03_logFC", "setting": "Degron-ID 3900, SEQ ID NO 3870, 46F_47V_49E_50I_52G_53A_54A_55F_67L", "result": 2.893}, {"measurement": "B03_logFC", "setting": "Degron-ID 3905, SEQ ID NO 3771, 46F_47V_49E_50I_52G_53A_54G_55F_67L_", "result": 3.073}, {"measurement": "B03_logFC", "setting": "Degron-ID 3911, SEQ ID NO 4413, 46F_47V_49E_50I_52G_53A_54N_55F_67L_", "result": 2.026}, {"measurement": "B03_logFC", "setting": "Degron-ID 3915, SEQ ID NO 4257, 46F_47V_49E_50I_52G_53A_54S_55F_67L_", "result": 2.279}, {"measurement": "B03_logFC", "setting": "Degron-ID 3940, SEQ ID NO 3679, 46F_47V_49E_50V_52G_53A_54A_55F_67L_", "result": 3.275}, {"measurement": "B03_logFC", "setting": "Degron-ID 3954, SEQ ID NO 3932, 46F_47V_49E_50V_52G_53A_54R_55F_67L", "result": 2.784}]}
